This test has as its system primary human hepatic stellate cells (donor 1). As to the kind of experiment: percent Bodipy-positive cells; higher = more lipid droplet accumulation. As to conditions: 48 h.
The mark [1] stands for this setting: library stock concentration: 10 mM.
Where [2] appears, read: library stock concentration: 1 mM.
Where [3] appears, read: library stock concentration: 3.33 mM.
[4] abbreviates: library stock concentration: 80 uM.
[5] abbreviates: library stock concentration: 400 uM.
[6] abbreviates: library stock concentration: 2 mM.

Values joined by “and” are separate entries in the source; they are usually repeats but may differ in a detail not shown here. Equal values may be shown once. Where a name gives a salt, the structure may show the parent alone. ± gives the standard deviation of the averaged measurements. The list shows a part of the results. Baselines shift from plate to plate; read single values as rough.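 Primary human stellate myofibroblasts activated in culture; inactivation shown by regained lipid droplets. Readout: fraction of Hoechst-counted cells exceeding a per-plate Bodipy threshold, duplicate wells, each plate with DMSO negative and nortriptyline positive controls. Hits: control-normalized score beyond the plate's top-tenth-percentile nortriptyline wells, or among its three best wells. Final well concentrations unstated.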

With `N[C@@H](Cc1c[nH]cn1)C(=O)O` [L-Histidine hydrochloride], the “percent Bodipy-positive cells” value under setting [1] stood at 35.6 ± 20%.
As to `CC(C)CCOc1ccc(NC(=S)Nc2ccc(OCCC(C)C)cc2)cc1` [Thiocarlide], the “percent Bodipy-positive cells” value under setting [2] came to 12.4 ± 4%.
As to `Cc1ccc(Cl)cc1N(CC(=O)Nc1c(F)cccc1F)S(C)(=O)=O`, the “percent Bodipy-positive cells” value stood at 38.9 ± 0.76% under setting [3] and 45.2 ± 1.4% under setting [1].
Regarding `COc1cc2c(cc1OC)-c1c/c(=N\c3c(C)cc(C)cc3C)n(C)c(=O)n1CC2` [Trequinsin], the “percent Bodipy-positive cells” value stood at 21 ± 3.7% (library stock concentration: 4.9 mM) and 38.8 ± 9.4% (library stock concentration: 12.3 mM).
`Cc1cccc(Nc2ccncc2S(=O)(=O)NC(=O)NC(C)C)c1` [Torsemide]: the “percent Bodipy-positive cells” value was 10 ± 5.8%. Also, the “percent Bodipy-positive cells” value under setting [1] was determined as 39.8 ± 5.8%.
For the compound `Cc1cccc(Nc2ccncc2S(=O)(=O)NC(=O)NC(C)C)c1`, for the setting “library stock concentration: 9.9 mM”, the “percent Bodipy-positive cells” value amounted to 7.71 ± 6.8%.
For the compound `CCCCC/C=C\C/C=C\C/C=C\C/C=C\CCCC(=O)NC[C@]1(C)CCC[C@]2(C)c3ccc(C(C)C)cc3CC[C@@H]12` [Arachidonic Acid Leelamide], the “percent Bodipy-positive cells” value under setting [2] was found to be 7.62 ± 1.3%.
For `COc1ccc(-c2nc3cc(F)ccc3s2)cc1OC`, the “percent Bodipy-positive cells” value under setting [2] is 9.1 ± 0.76%.
As for `O=C(O)CCCC[C@@H]1CCSS1` [Thioctic acid], the “percent Bodipy-positive cells” value under setting [1] came out at 34.9 ± 2.4%.
As to `C=N[C@@H](C(=O)N[C@@H]1C(=O)N2[C@@H]1SC(C)(C)[C@@H]2C(=O)O)c1ccccc1` [Metampicillin sodium salt], the “percent Bodipy-positive cells” value came to 27 ± 14%.
For the compound `CC[N+](CC)(CC(=O)Nc1c(C)cccc1C)Cc1ccccc1` [Denatonium benzoate], the “percent Bodipy-positive cells” value was 9.64 ± 3%. In addition, the “percent Bodipy-positive cells” value (library stock concentration: 4.5 mM) was 11.9 ± 0.36%.
As to `COc1cc(NS(=O)(=O)c2ccc(N)cc2)nc(OC)n1` [Sulphadimethoxine], the “percent Bodipy-positive cells” value stood at 6.32 ± 2.1% under setting [3] and 14.7 ± 5.2% under setting [1].
Turning to `COc1cc(NS(=O)(=O)c2ccc(N)cc2)nc(OC)n1` [Sulfadimethoxine], the “percent Bodipy-positive cells” value amounted to 4.49 ± 2.3%. Moreover, the “percent Bodipy-positive cells” value (library stock concentration: 6.4 mM) is 6.3% and 15.3%. The “percent Bodipy-positive cells” value under setting [1] was 17.33 ± 0.032%.
For the compound `COc1cc2ccc(=O)oc2cc1O` [Scopoletin], the “percent Bodipy-positive cells” value was found to be 6.31 ± 2.2%. In addition, under setting [1], the “percent Bodipy-positive cells” value turned out to be 35.7 ± 22%.
On to `CC1(C)O[C@@H]2[C@@H](CO[C@@]3(COS(N)(=O)=O)OC(C)(C)O[C@@H]23)O1`, for which the “percent Bodipy-positive cells” value under setting [1] amounted to 6.21 ± 0.41%.
As for `CC1(C)O[C@@H]2[C@@H](CO[C@@]3(COS(N)(=O)=O)OC(C)(C)O[C@@H]23)O1` [Topiramate], the “percent Bodipy-positive cells” value is 35.5 ± 4.1% under setting [3] and 10.8 ± 4% (library stock concentration: 5.9 mM).
For `CN(C)CCC=C1c2ccccc2C=Cc2ccccc21.Cl` [Cyclobenzaprine HCl], under setting [3], the “percent Bodipy-positive cells” value was determined as 64.2 ± 5.8%.
With `CN(C)c1cc(NC(=O)CNC(C)(C)C)c(O)c2c1C[C@H]1C[C@H]3[C@H](N(C)C)C(O)=C(C(N)=O)C(=O)[C@@]3(O)C(O)=C1C2=O`, the “percent Bodipy-positive cells” value under setting [1] is 32.2 ± 11%.
As for `CCNc1nc(Nc2cc(F)c(C(=O)N3CCOCC3)cc2OC)ncc1C(F)(F)F`, the “percent Bodipy-positive cells” value reads like this: under setting [4], 12 ± 4.3%; under setting [5], 10.7 ± 2.4%; under setting [6], 10.1 ± 0.81%; under setting [3], 27.5 ± 0.56%.
Take `NCCC(=O)NCCc1c[nH]cn1` [Carcinine]: the “percent Bodipy-positive cells” value is 23.4 ± 1.1%.
Turning to `O=C1Nc2ccc(I)cc2/C1=C/c1cc(Br)c(O)c(Br)c1`, the “percent Bodipy-positive cells” value is 10.6 ± 5.9% under setting [4]; 11.4 ± 2.6% under setting [5]; 5.98 ± 0.066% under setting [6]; 24.4 ± 1.7% (library stock concentration: 9.6 mM); 25.4% and 9.82% and 7.75% under setting [1].
For `O=c1onc2cnc3ccccc3n12`, the “percent Bodipy-positive cells” value under setting [1] is 69.9 ± 8.4%.
Regarding `O=C1N=C(O)NC1(c1ccccc1)c1ccccc1` [Phenytoin sodium], the “percent Bodipy-positive cells” value is, setting by setting: under setting [3], 21.3 ± 10%; (library stock concentration: 7.3 mM) 4.82 ± 0.67%; under setting [1], 15.4% and 18.5% and 24%.
Turning to `CC(=O)OCC(=O)[C@@]1(O)[C@H](OC(C)=O)C[C@H]2[C@@H]3CCC4=CC(=O)C=C[C@]4(C)[C@@]3(F)[C@@H](O)C[C@@]21C` [Triamcinolone diacetate], the “percent Bodipy-positive cells” value under setting [1] was 16.1 ± 4.7%.
`Clc1cccc(Nc2nnc(-c3ccccc3)c3ccccc23)c1`: the “percent Bodipy-positive cells” value reads like this: under setting [1], 18.5 ± 2.4%; (library stock concentration: 15.1 mM) 36.2 ± 1.6%.
On to `CC(C)Cn1cnc2c(N)nc3ccccc3c21` [Imiquimod], for which the “percent Bodipy-positive cells” value (library stock concentration: 8.3 mM) is 7.2 ± 1.1%.
For the compound `O=C(O)C=Cc1cc(Br)c(Br)c(Br)c1Br` [Casein Kinase II Inhibitor III, TBCA], under setting [3], the “percent Bodipy-positive cells” value worked out at 12.1 ± 7.4%.
As for `Cc1nc2ccc(NC(=O)Nc3ccnc4cccnc34)cc2o1`, the “percent Bodipy-positive cells” value under setting [1] came to 12.3 ± 5.3%.
Turning to `O=C(c1ccc(Nc2nccc(-c3cc4ccccc4s3)n2)cc1)N1CCC(N2CCCC2)CC1` [IKK-16 (IKK Inhibitor VII)], the “percent Bodipy-positive cells” value under setting [3] was 98.8 ± 1.7%.
Consider `Oc1nc(-c2ccc(C(F)(F)F)cc2)nc2c1CSCC2`, for which the “percent Bodipy-positive cells” value reads like this: under setting [2], 12 ± 1.8%; under setting [3], 4.87 ± 3.7%; under setting [1], 19.3% and 6.28%.
`NC(=O)N1c2ccccc2CC(=O)c2ccccc21` [Oxcarbazepine]: the “percent Bodipy-positive cells” value is 27.5 ± 0.34% under setting [3]; 6.37% and 9.36% (library stock concentration: 7.9 mM); 13.1% and 36.8% under setting [1].
Take `NC(=O)N1c2ccccc2CC(=O)c2ccccc21` [Trileptal]: under setting [1], the “percent Bodipy-positive cells” value was 19.2 ± 4.7%.
`CCCCC[C@H](O)/C=C/[C@H]1OC(O)C[C@H](O)[C@@H]1C/C=C\CCCC(=O)O` (stereo not given in full) [Thromboxane B2]: the “percent Bodipy-positive cells” value under setting [2] was 14 ± 4.4%.
With `CCCCCCCCCCCCCCCC(=O)N[C@H](C)CO` [R-Palmitoyl-(1-methyl) Ethanolamide], the “percent Bodipy-positive cells” value under setting [2] amounted to 11.9 ± 1.2%.
For the compound `NC1=NCC2c3ccccc3Cc3ccccc3N12` (stereo not given) [Epinastine HCl], the “percent Bodipy-positive cells” value under setting [3] was found to be 11.7 ± 1.2% and the “percent Bodipy-positive cells” value under setting [1] was 49.3 ± 7.6%.
Take `NC1=NCC2c3ccccc3Cc3ccccc3N12` (stereo not given) [Epinastine hydrochloride]: the “percent Bodipy-positive cells” value under setting [1] worked out at 78.7 ± 5.1%.
